These results are taken from PubChem BioAssay AID1347423 (Functional Genomics Laboratory (NCATS/FGL), 2020).

In all, about 52,000 sequences went through this assay and about 210 (0.4%) were called active.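 Rule for the calls: active = gene whose silencing raises cell survival under the drug, median off-target-corrected z-score across its silencing RNAs 2 or more; inactive = the rest.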 This is one part of the list.

A short description of the test: Resistance to Poly (ADP-Ribose) Polymerase inhibitor: Gene Identification via Genome-wide siRNA Screen. As to conditions: mouse BRCA2 R2336H ES cells, olaparib, CellTiter-Glo viability; hits give high values. Put shortly: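 Mouse BRCA2 R2336H ES cells were reverse-transfected with siRNA (20 nM final), treated at 48 h with 500 nM olaparib, and read by CellTiter-Glo after 72 h. Scores: MAD-based z per siRNA, median per gene, seed off-target correction.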
Background: In ATP-based viability assays light output follows the ATP content of the culture.
Consider CCUCCUUUUAGACAGAUGCTT against LOC245297, for which the z-score is inactive: -0.431.
CCUGAUACUAACAAGGAAATT against Afmid: the z-score is inactive: 0.96.
As for GGGUGUUCUACAGAAAUGATT against Orc5l, the z-score is inactive: -0.885.
Regarding “GGCAUAUGUUGAAACUAUUTT against 2310045A20Rik”, the z-score was inactive: 0.327.
Then “GGUUUUCCCACUCUUUCACTT against 1200011M11Rik”, with inactive: 0.419.
Then GGACAAGUAUAGCCAUCUUTT against Spag7, with inactive: -1.04; and GCUUGGUUGGCCUUUUCCATT against Olfr320, with inactive: 0.358.
Then “GGGAGAAAGAUUGUAACUATT against 1110032A03Rik”, with inactive: -0.819.
For the sequence CCUUAUCCAGACAUAGAUUTT against BC027344, the z-score is inactive: 0.287.
On to GGUCCCUUCUUCUCAAGGUTT against Olfr1, for which the z-score was inactive: 1.82.
Then CCCAGGACAAAAUAGUGUCTT against Olfr164, with inactive: 0.807.
Consider GGAAAAAGACCACAGCCAGTT against Oaz3, for which the z-score was inactive: -1.12.
For the sequence GCACUCGUCGUUUGGCUAUTT against Pitx1, the z-score is inactive: -1.18.
Then GGCCCUGUAGAAGACAAUGTT against Plxna1, with inactive: -0.772; and “GGACACCAUUGGCUCCUUATT against 2010004O20Rik”, with inactive: -1.65; and GGAAGAAAACAAAGACGGCTT against Mxd4, with inactive: 0.485.
For GGCCUAUUGUAAAAACCCATT against Taf1b, the z-score was inactive: -1.03.
As for GGUUUUGAAGUGAUUGAAGTT against Tjp2, the z-score was inactive: -0.548.
Then GGGACGUGUUAAAAAGGGCTT against Cldn5, with inactive: 1.61; and CGAGACUAACCUUUAGUUATT against AI661017, with inactive: -0.0544.
On to “GGUUUCAUUUGGAUUUGCATT against 3930401K13Rik”, for which the z-score was inactive: -0.475.
Then GGAUUGUUCUUUCUUUCUCTT against Stac, with inactive: 0.619; and GGGUAAACUAUUUGUUGUUTT against Arl6ip6, with inactive: -0.282; and GCUGAGCUGCGCUUAUUGGTT against Fes, with inactive: 0.319.
Then GGUGUGAAAAGAGGAGGAGTT against Zfp71-rs1, with inactive: -1.08; and GGAGGAUAAGGAUACAGUATT against Cspg5, with inactive: -1.3; and CGAGAAUACCAAACUCGUGTT against Dub2a, with inactive: 0.0305.
Then “GGACAUGAGUGUCAAUUCUTT against 6330503C03Rik”, with inactive: 1.5; and “GGUAAGUUUGGGAACAUUGTT against 4933413B09Rik”, with inactive: -2.02; and GGAAGUAACCACAUCCUAUTT against Epn2, with inactive: 1.08.
As for GGGAAUGGGUGUUCAUCCATT against Tnf, the z-score is inactive: 0.467.
Then “GCCUCUCCUGUGAAUGACATT against 4933407N01Rik”, with inactive: -1.07; and CGCGAAAUAUGUGUGUUUATT against Nr4a2, with inactive: 1.21; and GCCCUAUCUACGAUGAAAATT against Scamp2, with inactive: -1.04.
As for “GGAAAAGCACAGAUUUCUATT against 4932432K03Rik”, the z-score is inactive: -0.489.
As to CUCCCAAAUGGAAUUGCAUTT against Rc3h1, the z-score was inactive: -2.85.
For the sequence GGAGGGAGAACUCAUCGAATT against Nudt14, the z-score is inactive: -0.904.
Then CGACAUCGACAGUCUAUAATT against Abp1, with inactive: -0.292; and GGAUAGCGUGAAAUGAUUATT against Nqo3a2, with inactive: 0.75.
As to “GGUCAUGAUGGAAUGAGAATT against 9130404D14Rik”, the z-score is inactive: 0.458.
Then UCUUACAAACUAGCUCUCCTT against Crabp2, with inactive: 0.411; and GGACAGAGAUCAAUAUUAATT against BC053073, with inactive: 0.416; and CCACCAAAAUUUCAUGAUATT against Eps15-rs, with inactive: 0.0444.
On to GCACGAAGAGUUAAUGGAGTT against Aym1, for which the z-score was inactive: 1.84.
In the case of GGGUGGUCAGGAAAAUCAUTT against Notch1, the z-score is inactive: 2.31.
In the case of “GGAGAAAAAGUCUGAAAGATT against Hel308-pending”, the z-score was inactive: -1.04.
Then “GGAGAGAUUUUUCUAUCAUTT against D030060O14Rik”, with inactive: 0.307; and GCUGACGAAACCAUUGAAUTT against Ugt1a10, with inactive: -0.574.
Then GGAUGUCUGUCCUCUUAAATT against MGC30332, with inactive: -1.67.
On to CCAUAGAUAUUUACGGAAATT against Slc9a4, for which the z-score is inactive: 0.519.
Then CCAGCUAAUCCCAACAUGCTT against Pum1, with inactive: 0.681; and GCAUCAGGAUUCUGAUAACTT against Mrgpra6, with inactive: -0.862.
Take GCCUUCUGCUCCGAAGAAGTT against Rpl13: the z-score is inactive: -3.02.
Then CCUUGUGUAAGAGGUUUUUTT against Helz, with inactive: 0.0206; and GGAUUAAGUGGUCAAAUGATT against Ugt2b36, with inactive: 0.814; and GGACCAAGCUGUUAUUAACTT against Dhodh, with inactive: -0.104.
On to GCGAUUGCAAGAGGACCUATT against Hr6bn, for which the z-score is inactive: 0.726.
As for GCAAGCAGACUUGUCCUUCTT against Hnrpc, the z-score was inactive: -0.33.
Then “CCAUGGCUUACGAGAGACATT against D430028G21Rik”, with inactive: 1.07; and CGAGCUAUCCACUUAAUCATT against Irak3, with inactive: 0.638; and GGCUGGUAUCUUUCAGAGUTT against Cox6c, with inactive: 0.109.
As to CCAAGUCGUAAUCUAGAAGTT against Scn7a, the z-score was inactive: 2.2.
Then CGAUUAGUCUCUCAUUAUUTT against Ipo11, with inactive: 0.42; and GGAAAAAGCCCUUGAACAUTT against Tnnt1, with inactive: -0.581.
Then “GGCUAUGAGGACUCCUAUGTT against A430081P20Rik”, with inactive: -1.13.
As to “GCAAGUGGUUGAUUGAGAATT against 2510027N19Rik”, the z-score is inactive: -1.23.
